Results deposited as PubChem BioAssay AID1053208 (Peter MacCallum Cancer Centre, 2014).
The deposit covers about 17,000 reagents; shown is an unselected part. 788 of them (4.7%) were called active. 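Calls rest on z-score classes alone; an extra cut-off of viability at most 70% of control was not applied to them.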 Entries without a mark were called inactive. Further read-outs or replicates are left out here. Reagent sequences are not shown.

- Purpose: 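Synthetic lethal interactions between gene loss and doxorubicin in osteosarcoma cells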 (primary screen)
- System: mouse osteosarcoma cells, early-passage culture from an engineered mouse model of fibroblastic bone tumour
- Reagents: siRNA pool against mouse genes, 40 nM
- Duration: about 120 h (48 h before drug, then 72 h with drug)
- Treatment: doxorubicin 100 nM for 72 h, roughly 30-40% inhibitory dose
- Measured: 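Viability read as ATP luminescence after 72 h of 100 nM doxorubicin or none, duplicate wells averaged, scaled to non-targeting siRNA, then expressed as robust z-scores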
- Scale: viability z-score with doxorubicin: higher = more viable cells under doxorubicin; viability z-score without drug: higher = more viable cells with knock-down alone
- Call rule: 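Called active if knock-down leaves viability unchanged without drug (z within -2 to 2) but lowers it with doxorubicin (z at or under -2)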

Eef1d: combined z-score class = low cell count without drug only; viability z-score with doxorubicin = -0.9; viability z-score without drug = -2.02
Slamf9: combined z-score class = no change with or without drug; viability z-score with doxorubicin = -0.34; viability z-score without drug = 0.17
Pam: combined z-score class = no change with or without drug; viability z-score with doxorubicin = 0.45; viability z-score without drug = 0
Tmem239: combined z-score class = high cell count without drug only; viability z-score with doxorubicin = -1.12; viability z-score without drug = 2.02
Abhd17a: combined z-score class = no change with or without drug; viability z-score with doxorubicin = 1.35; viability z-score without drug = -0.17
2810021J22Rik: combined z-score class = no change with or without drug; viability z-score with doxorubicin = -0.22; viability z-score without drug = -1.18
Mzt2: combined z-score class = no change with or without drug; viability z-score with doxorubicin = 0.11; viability z-score without drug = 0.17
Bambi: combined z-score class = no change with or without drug; viability z-score with doxorubicin = -1.12; viability z-score without drug = -0.17
Adat1: combined z-score class = no change with or without drug; viability z-score with doxorubicin = 0.45; viability z-score without drug = 0.84
Or2aj5: combined z-score class = no change with or without drug; viability z-score with doxorubicin = -0.79; viability z-score without drug = -0.51
Yap1: combined z-score class = no change with or without drug; viability z-score with doxorubicin = -1.01; viability z-score without drug = -1.85
Ermn: combined z-score class = no change with or without drug; viability z-score with doxorubicin = -0.45; viability z-score without drug = 1.01
Rbm26: combined z-score class = no change with or without drug; viability z-score with doxorubicin = -1.12; viability z-score without drug = -0.51
Gpr68: combined z-score class = no change with or without drug; viability z-score with doxorubicin = -1.12; viability z-score without drug = -0.51
Or6c35: combined z-score class = no change with or without drug; viability z-score with doxorubicin = -0.45; viability z-score without drug = -0.51
Rcc1l: combined z-score class = no change with or without drug; viability z-score with doxorubicin = 1.8; viability z-score without drug = 1.85
Sh2d2a: combined z-score class = no change with or without drug; viability z-score with doxorubicin = -1.12; viability z-score without drug = 0.34
Nanos3: combined z-score class = no change with or without drug; viability z-score with doxorubicin = 1.35; viability z-score without drug = 1.69

Reprinted from above, 4 entries:
Slamf9: combined z-score class = no change with or without drug; viability z-score with doxorubicin = -0.34; viability z-score without drug = 0.17
Pam: combined z-score class = no change with or without drug; viability z-score with doxorubicin = 0.45; viability z-score without drug = 0
Tmem239: combined z-score class = high cell count without drug only; viability z-score with doxorubicin = -1.12; viability z-score without drug = 2.02
Abhd17a: combined z-score class = no change with or without drug; viability z-score with doxorubicin = 1.35; viability z-score without drug = -0.17

Further reagents:
Cdc42ep3: combined z-score class = no change with or without drug; viability z-score with doxorubicin = 0.67; viability z-score without drug = 0.51
Ica1: combined z-score class = low cell count with doxorubicin only (active); viability z-score with doxorubicin = -2.25; viability z-score without drug = -1.85
Wls: combined z-score class = high cell count without drug only; viability z-score with doxorubicin = 1.01; viability z-score without drug = 2.87
Cript: combined z-score class = no change with or without drug; viability z-score with doxorubicin = 0.67; viability z-score without drug = -0.17
Rrp7a: combined z-score class = no change with or without drug; viability z-score with doxorubicin = 1.24; viability z-score without drug = 1.85
Cfap298: combined z-score class = no change with or without drug; viability z-score with doxorubicin = -1.57; viability z-score without drug = -0.17
Enah: combined z-score class = no change with or without drug; viability z-score with doxorubicin = -0.34; viability z-score without drug = -0.84
Magee1: combined z-score class = no change with or without drug; viability z-score with doxorubicin = 0.22; viability z-score without drug = -0.84
Plk3: combined z-score class = no change with or without drug; viability z-score with doxorubicin = -0.11; viability z-score without drug = 0.34
Krt88: combined z-score class = no change with or without drug; viability z-score with doxorubicin = -0.22; viability z-score without drug = 1.52
